Results from patent publication US20050221429A1.
These are yes or no findings as the source states them, for the method shown. Some entries that bind do so weakly or less than the wild type.

Chains of the proteins cited; added tags and fusions are not shown. Residues count along the entry.
UniProt P06731, residues 35-685: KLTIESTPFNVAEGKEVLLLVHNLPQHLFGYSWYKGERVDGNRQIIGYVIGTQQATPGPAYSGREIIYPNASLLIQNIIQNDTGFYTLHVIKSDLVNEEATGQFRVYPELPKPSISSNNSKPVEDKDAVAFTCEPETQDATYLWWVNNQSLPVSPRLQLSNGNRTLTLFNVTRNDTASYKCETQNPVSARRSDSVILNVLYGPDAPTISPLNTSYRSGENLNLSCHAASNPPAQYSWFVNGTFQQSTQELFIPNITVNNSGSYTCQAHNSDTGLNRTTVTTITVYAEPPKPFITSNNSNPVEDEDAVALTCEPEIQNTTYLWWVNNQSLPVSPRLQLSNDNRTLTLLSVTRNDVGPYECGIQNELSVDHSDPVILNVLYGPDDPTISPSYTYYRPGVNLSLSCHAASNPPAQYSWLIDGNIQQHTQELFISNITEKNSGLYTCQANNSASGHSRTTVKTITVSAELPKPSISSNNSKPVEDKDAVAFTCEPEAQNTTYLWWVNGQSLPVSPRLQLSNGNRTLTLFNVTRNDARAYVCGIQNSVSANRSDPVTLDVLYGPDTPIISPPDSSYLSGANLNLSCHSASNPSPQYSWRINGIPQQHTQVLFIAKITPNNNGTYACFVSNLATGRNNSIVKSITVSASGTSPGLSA

Biological target: CEA (UniProt P06731)
Experiment: CEA binding ELISA of culture media from transduced cells, compared with a human IgG ELISA

binding: binds
B1: MN14 antibody (antibody, V domains shown)
VH: EVQLVESGGGVVQPGRSLRLSCSASGFDFTTYWMSWVRQAPGKGLEWIGEIHPDSSTINYAPSLKDRFTISRDNAKNTLFLQMDSLRPEDTGVYFCASLYFGFPWFAYWGQGTPVTVSS
VL: DIQLTQSPSSLSASVGDRVTITCKASQDVGTSVAWYQQKPGKAPKLLIYWTSTRHTGVPSRFSGSGSGTDFTFTISSLQPEDIATYYCQQYSLYRSFGQGTKVEIKR
